Laboratory results from PMC4778861, “Type One Protein Phosphatase 1 and Its Regulatory Protein Inhibitor 2 Negatively Regulate ABA Signaling” (PLoS Genetics, 2016).
Results are given in words; binding and its absence hold for the method and conditions named. Some binding calls cover weakened binding; strength is not graded here. Where a sequence is shown, tags or fusion partners need not be part of it.

Chains of the proteins cited; added tags and fusions are not shown.
UniProt P30366: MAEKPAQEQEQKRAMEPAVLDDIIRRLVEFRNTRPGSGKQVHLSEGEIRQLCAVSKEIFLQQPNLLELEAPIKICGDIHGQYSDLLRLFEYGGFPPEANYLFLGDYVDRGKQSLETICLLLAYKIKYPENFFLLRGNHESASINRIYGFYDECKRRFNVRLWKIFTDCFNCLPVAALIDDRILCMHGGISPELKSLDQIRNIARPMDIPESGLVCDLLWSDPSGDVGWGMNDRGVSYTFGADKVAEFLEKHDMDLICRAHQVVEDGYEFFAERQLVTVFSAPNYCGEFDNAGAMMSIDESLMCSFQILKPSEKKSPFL

Key:
[1] = target: T1, BD-PYL11 (Arabidopsis thaliana) (UniProt Q9FJ50); assay: two-hybrid; AD fusions with BD-PYLs in S. cerevisiae AH109; growth on SD medium lacking Leu, Trp, His in the absence of ABA
T1 sequence: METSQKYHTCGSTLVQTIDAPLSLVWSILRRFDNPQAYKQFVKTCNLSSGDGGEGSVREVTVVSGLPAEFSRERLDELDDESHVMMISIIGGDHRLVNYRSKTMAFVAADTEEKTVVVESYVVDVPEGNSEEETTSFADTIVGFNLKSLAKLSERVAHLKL

[2] = target: T2, BD-PYL4 (Arabidopsis thaliana) (UniProt O80920); assay: as above
T2 sequence: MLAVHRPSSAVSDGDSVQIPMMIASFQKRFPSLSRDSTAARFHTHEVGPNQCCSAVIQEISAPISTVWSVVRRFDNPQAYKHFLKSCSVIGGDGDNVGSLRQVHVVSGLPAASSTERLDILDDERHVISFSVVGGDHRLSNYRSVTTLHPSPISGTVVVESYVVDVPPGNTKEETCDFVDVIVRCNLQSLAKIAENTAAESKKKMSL

[3] = target: T3, BD-PYL9 (Arabidopsis thaliana) (UniProt Q84MC7); assay: as above
T3 sequence: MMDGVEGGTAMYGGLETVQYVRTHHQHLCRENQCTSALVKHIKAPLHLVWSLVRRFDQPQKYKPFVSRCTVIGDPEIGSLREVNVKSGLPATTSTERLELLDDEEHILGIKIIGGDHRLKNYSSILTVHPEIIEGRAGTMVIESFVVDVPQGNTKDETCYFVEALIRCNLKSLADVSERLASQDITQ

[4] = target: T1, BD-PYL11 (Arabidopsis thaliana); assay: two-hybrid; AD fusions with BD-PYLs in S. cerevisiae AH109; growth on SD medium lacking Leu, Trp, His in the presence of 10 uM ABA
[5] = target: T2, BD-PYL4 (Arabidopsis thaliana); assay: as above
[6] = target: T3, BD-PYL9 (Arabidopsis thaliana); assay: as above
[7] = target: T4, BD-SnRK2.3 (Arabidopsis thaliana) (UniProt Q39193); assay: two-hybrid; AD fusions (pGADT7) with BD fusions in S. cerevisiae AH109; growth on SD medium lacking Leu, Trp, His in the absence or presence of 10 uM ABA (the text does not tell the two apart); 1 mM 3-AT to reduce self-activation of BD-SnRK2s; 30°C
T4 sequence: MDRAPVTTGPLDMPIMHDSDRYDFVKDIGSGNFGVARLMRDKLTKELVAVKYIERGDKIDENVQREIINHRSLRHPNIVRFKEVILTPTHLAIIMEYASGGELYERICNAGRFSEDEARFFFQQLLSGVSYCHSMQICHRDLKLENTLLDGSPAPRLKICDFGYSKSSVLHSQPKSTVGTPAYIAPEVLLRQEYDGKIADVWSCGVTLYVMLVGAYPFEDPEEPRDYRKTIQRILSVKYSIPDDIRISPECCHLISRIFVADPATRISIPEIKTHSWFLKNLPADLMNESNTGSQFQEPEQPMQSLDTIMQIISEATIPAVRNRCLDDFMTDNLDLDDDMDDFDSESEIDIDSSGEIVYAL

[8] = target: T5, BD-SnRK2.2 (Arabidopsis thaliana) (UniProt Q39192); assay: as above
T5 sequence: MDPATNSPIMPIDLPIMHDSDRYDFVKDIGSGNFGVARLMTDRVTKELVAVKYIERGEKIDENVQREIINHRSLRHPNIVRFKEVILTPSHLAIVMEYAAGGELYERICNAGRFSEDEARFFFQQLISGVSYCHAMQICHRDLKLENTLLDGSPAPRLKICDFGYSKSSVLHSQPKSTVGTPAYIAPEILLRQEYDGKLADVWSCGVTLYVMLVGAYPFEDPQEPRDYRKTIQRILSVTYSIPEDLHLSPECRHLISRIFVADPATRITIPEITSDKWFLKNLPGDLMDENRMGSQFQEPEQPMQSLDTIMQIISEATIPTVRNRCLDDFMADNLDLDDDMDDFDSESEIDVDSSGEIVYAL

[9] = target: T6, BD-SnRK2.6 (Arabidopsis thaliana) (UniProt Q940H6); assay: as above
T6 sequence: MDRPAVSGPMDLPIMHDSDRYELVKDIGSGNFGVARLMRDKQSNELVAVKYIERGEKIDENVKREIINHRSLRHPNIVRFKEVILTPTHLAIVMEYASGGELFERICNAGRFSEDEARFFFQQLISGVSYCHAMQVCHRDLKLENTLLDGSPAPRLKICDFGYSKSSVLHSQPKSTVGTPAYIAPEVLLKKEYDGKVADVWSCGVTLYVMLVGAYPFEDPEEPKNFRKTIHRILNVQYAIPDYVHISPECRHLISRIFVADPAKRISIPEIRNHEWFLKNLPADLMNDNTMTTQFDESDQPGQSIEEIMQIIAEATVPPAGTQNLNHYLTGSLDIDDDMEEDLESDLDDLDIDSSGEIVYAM

[10] = target: T7, BD-SnRK2.4 (Arabidopsis thaliana) (UniProt P43291); assay: as above
T7 sequence: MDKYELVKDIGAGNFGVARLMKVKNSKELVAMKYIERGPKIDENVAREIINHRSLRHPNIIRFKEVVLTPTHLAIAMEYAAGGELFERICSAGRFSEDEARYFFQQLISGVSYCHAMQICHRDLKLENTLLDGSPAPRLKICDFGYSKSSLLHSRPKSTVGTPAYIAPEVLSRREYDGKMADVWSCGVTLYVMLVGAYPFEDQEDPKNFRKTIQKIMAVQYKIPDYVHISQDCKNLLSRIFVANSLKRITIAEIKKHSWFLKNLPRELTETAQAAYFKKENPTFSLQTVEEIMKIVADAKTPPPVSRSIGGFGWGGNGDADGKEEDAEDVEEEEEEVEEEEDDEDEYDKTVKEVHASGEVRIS

[11] = target: T8, BD-SnRK2.8 (Arabidopsis thaliana) (UniProt Q9M9E9); assay: as above
T8 sequence: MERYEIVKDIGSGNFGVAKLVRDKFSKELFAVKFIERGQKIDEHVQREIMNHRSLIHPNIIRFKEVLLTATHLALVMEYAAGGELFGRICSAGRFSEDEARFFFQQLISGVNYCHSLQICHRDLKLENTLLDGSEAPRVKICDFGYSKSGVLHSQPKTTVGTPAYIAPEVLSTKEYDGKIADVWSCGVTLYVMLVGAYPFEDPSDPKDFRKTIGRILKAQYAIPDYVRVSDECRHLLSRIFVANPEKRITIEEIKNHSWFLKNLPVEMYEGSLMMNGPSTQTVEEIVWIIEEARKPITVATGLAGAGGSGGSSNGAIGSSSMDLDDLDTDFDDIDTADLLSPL

Measured: binding

AD-TOPP1 (from UniProt P30366 1-318) (enzyme)
binds: [1] | [2] | [3] | [4] | [5] | [6] | [7] | [8] | [9] | [10] | [11]
